# Measurements reported in the supplement of paper PMC10849652.
# Chains of the proteins cited; added tags and fusions are not shown. Lines headed by an entry give the natural chain unless they say otherwise; changes in a name come on top.
# UniProt Q9UHC7: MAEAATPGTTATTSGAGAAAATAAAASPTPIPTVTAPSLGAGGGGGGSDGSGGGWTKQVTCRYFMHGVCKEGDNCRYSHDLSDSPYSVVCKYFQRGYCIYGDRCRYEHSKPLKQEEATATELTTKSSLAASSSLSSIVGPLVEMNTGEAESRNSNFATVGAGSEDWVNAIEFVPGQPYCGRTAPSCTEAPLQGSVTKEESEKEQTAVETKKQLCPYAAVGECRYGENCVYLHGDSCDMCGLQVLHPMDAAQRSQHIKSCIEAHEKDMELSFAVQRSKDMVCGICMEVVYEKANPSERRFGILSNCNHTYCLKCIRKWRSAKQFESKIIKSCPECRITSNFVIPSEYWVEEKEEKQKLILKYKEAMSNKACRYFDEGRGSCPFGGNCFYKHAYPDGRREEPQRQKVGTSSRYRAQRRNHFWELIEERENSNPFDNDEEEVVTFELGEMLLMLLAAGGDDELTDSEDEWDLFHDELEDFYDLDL
# UniProt Q8N3F8: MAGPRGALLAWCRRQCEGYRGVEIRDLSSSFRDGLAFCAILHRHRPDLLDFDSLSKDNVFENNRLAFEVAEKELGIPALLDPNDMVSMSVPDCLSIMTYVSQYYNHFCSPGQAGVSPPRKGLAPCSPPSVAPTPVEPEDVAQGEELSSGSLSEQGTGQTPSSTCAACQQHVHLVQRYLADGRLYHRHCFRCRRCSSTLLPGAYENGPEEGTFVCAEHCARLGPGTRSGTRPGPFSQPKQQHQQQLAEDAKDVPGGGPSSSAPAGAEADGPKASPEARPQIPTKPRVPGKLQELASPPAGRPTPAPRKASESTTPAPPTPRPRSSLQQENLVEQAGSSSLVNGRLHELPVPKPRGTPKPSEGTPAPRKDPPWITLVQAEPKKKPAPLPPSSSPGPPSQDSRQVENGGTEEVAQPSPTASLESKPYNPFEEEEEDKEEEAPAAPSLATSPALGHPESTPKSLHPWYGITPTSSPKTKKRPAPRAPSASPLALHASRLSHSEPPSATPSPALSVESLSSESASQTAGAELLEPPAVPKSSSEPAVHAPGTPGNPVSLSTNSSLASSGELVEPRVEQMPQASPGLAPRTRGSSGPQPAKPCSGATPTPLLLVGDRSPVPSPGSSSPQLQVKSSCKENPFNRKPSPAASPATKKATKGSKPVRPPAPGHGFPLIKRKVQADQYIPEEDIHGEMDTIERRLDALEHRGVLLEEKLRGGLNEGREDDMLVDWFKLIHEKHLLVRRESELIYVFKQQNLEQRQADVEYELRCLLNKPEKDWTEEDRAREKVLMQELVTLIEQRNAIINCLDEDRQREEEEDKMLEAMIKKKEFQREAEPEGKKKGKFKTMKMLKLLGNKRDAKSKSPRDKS
# UniProt Q13064: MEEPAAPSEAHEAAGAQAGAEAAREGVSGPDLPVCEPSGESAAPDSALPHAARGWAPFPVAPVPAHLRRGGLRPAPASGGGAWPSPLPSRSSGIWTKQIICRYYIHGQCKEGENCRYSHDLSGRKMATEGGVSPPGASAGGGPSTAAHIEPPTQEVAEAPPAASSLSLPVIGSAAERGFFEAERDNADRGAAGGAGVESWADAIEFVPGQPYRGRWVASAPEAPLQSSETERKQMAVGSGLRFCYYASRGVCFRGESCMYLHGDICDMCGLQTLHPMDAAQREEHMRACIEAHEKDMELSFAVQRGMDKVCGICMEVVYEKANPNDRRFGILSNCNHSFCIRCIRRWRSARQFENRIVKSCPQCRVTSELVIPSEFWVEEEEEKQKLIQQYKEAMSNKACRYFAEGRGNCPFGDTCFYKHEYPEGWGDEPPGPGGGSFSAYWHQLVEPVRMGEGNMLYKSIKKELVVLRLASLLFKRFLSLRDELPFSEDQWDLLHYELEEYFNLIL
# UniProt Q9NPA3, whole entry, looked up: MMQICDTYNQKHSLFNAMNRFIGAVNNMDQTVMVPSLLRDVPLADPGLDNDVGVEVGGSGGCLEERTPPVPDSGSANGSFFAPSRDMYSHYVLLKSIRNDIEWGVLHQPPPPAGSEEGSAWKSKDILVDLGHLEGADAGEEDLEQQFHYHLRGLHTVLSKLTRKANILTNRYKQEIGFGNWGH
# UniProt Q70IA6: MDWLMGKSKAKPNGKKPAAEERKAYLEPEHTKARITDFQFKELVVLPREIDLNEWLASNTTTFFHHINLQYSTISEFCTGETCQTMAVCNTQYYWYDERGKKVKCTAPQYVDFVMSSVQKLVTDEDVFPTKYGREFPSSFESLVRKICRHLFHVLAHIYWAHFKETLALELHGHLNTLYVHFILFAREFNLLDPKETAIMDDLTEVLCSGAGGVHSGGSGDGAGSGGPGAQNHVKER
# UniProt Q13015: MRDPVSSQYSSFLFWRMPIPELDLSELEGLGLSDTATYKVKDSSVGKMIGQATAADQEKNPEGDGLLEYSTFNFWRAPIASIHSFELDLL
# UniProt Q86VX9: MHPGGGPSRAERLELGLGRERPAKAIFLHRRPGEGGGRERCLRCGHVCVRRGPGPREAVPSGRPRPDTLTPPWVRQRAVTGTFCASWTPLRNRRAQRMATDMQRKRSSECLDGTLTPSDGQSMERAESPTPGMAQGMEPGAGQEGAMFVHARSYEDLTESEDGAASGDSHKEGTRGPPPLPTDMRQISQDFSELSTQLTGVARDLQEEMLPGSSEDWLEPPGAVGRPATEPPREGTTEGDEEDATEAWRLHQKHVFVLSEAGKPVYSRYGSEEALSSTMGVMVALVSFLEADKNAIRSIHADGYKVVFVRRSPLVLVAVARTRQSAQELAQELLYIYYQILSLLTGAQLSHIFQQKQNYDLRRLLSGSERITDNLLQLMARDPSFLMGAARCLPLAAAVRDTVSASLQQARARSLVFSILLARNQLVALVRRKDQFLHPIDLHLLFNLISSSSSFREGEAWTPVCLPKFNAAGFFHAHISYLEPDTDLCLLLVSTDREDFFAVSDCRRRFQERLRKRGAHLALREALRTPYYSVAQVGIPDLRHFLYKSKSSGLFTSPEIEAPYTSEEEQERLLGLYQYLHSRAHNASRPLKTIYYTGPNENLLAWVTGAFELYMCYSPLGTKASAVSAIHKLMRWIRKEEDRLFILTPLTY
# UniProt Q6NTE8: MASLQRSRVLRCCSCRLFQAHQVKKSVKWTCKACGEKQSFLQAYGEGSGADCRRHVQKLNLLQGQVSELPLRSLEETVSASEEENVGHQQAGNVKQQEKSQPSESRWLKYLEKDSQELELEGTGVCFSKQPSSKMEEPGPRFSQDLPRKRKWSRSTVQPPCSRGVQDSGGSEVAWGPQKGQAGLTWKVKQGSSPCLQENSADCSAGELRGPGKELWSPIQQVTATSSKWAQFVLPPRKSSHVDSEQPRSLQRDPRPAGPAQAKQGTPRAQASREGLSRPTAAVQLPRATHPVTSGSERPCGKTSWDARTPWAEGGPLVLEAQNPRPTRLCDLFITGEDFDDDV
# UniProt Q8TDZ2: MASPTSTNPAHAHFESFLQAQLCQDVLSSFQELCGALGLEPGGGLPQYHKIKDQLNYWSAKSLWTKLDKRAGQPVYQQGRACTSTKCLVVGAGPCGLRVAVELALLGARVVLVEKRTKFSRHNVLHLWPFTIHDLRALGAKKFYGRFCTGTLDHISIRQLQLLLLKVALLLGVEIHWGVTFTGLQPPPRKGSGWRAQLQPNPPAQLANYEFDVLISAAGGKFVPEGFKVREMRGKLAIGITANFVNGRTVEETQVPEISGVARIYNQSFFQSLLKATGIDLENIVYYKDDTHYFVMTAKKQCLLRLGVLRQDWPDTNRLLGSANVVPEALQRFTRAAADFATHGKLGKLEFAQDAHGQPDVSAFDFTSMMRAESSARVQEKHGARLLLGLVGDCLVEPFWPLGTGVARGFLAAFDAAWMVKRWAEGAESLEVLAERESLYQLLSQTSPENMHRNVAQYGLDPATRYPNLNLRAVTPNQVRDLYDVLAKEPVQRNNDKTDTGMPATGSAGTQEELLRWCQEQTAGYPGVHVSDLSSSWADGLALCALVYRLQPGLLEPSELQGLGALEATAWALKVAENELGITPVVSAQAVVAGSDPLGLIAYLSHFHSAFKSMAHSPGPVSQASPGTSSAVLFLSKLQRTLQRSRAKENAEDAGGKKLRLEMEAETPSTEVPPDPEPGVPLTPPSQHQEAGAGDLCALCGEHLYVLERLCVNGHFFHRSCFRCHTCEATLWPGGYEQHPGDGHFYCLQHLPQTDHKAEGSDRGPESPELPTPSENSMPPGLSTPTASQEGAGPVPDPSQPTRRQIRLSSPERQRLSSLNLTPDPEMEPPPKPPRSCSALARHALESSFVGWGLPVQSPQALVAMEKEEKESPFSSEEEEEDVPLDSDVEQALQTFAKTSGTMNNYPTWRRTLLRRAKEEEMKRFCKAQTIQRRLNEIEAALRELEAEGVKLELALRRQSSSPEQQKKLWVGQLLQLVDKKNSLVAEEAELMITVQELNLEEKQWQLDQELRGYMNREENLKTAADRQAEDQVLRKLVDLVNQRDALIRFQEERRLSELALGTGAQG
# UniProt Q9Y605: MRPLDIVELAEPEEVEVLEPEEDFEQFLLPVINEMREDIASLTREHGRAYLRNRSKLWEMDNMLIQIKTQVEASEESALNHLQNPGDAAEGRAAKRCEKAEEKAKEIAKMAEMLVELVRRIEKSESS
# UniProt P08473: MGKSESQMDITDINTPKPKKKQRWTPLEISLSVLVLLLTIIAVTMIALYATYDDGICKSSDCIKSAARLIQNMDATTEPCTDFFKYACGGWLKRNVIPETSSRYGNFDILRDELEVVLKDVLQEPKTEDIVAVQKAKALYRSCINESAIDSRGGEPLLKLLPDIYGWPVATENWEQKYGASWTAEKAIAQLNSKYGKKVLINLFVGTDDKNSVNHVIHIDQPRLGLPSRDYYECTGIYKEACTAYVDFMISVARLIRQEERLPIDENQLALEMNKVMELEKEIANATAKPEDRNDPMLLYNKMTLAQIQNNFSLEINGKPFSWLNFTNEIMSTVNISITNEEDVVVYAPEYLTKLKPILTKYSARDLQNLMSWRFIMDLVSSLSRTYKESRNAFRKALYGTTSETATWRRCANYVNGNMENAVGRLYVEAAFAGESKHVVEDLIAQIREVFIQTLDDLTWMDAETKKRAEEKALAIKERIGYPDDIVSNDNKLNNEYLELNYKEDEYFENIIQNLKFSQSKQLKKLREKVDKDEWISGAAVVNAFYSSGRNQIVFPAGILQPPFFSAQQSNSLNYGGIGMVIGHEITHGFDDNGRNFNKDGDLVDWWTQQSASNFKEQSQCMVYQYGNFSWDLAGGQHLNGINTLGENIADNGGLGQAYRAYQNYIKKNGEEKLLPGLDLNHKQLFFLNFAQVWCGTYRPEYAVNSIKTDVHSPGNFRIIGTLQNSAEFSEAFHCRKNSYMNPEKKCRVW
# UniProt Q13201: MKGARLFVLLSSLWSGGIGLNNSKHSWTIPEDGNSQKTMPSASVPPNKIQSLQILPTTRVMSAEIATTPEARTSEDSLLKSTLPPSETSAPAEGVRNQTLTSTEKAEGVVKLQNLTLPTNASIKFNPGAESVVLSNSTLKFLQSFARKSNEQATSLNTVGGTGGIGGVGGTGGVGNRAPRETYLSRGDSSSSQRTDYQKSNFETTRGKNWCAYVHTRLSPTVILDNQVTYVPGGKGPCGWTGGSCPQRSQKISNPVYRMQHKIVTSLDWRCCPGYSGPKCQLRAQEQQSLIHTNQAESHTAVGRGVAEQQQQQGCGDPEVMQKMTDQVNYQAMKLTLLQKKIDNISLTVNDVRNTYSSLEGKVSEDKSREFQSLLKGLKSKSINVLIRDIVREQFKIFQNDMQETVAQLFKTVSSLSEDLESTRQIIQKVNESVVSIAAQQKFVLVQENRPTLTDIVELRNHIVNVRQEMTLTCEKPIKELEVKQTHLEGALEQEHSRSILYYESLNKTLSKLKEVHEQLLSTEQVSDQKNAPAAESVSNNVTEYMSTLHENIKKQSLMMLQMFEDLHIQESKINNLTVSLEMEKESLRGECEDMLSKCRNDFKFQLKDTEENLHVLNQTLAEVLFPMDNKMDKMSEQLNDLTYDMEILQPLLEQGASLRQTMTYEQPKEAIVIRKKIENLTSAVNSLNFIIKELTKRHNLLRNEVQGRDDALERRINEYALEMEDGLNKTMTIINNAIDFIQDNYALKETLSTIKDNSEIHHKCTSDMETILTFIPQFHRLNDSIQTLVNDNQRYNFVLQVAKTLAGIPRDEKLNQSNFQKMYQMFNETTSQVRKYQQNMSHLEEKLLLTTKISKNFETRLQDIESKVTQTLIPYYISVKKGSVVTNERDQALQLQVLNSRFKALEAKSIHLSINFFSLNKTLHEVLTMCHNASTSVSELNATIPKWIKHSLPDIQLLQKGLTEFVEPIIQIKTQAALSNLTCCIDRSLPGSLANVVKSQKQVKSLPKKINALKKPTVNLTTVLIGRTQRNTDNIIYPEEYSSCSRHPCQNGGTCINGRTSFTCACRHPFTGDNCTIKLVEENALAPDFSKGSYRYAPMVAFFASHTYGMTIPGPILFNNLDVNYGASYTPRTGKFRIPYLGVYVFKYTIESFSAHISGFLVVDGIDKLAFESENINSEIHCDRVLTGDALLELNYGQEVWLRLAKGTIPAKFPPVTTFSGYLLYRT
# The other results are listed elsewhere or left out. Residues, ends and D or L forms follow the SMILES beside them. *: point of attachment. Cbz = O=C(OCc1ccccc1)*
# Compound: CC(C)(O)CC(=O)NCCn1ccc2ncnc(Nc3ccc(Oc4cccc(C(F)(F)F)c4)c(Cl)c3)c21
# Assay: log2 fold change, soluble protein after heating vs DMSO (PISA); higher = thermal stabilisation; K562 cells, 10 uM, 30 min; active = over 0.2 and 3.5 SD of the protein, either way, in both replicates (recomputed)
# Method in brief: (§1)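 Soluble protein was defined as the supernatant after 21,000xg for 90 min. It came from K562 cells at 2×10^6 cells/mL given 10 μM compound for 30 min, heated in aliquots for 3 min across 48°C-58°C, pooled, and extracted in PBS with 0.5% NP-40 at 4°C, and was quantified by TMTpro 16plex LC-MS/MS with equalised channel sums. Thermal stability against control samples, from duplicates, is reported as log2 fold change.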
row,Target,log2 fold change
1,MINDY2 (UniProt Q8NBR6),inactive: 0.029
2,MKRN1 (UniProt Q9UHC7),inactive: 0.161
3,MPHOSPH8 isoform 2 (UniProt Q99549),inactive: -0.06
4,MLLT10 (UniProt P55197),inactive: 0.075
5,MICAL2 (UniProt O94851),inactive: -0.08
6,MICALL1 (UniProt Q8N3F8),inactive: 0.09
7,MNT (UniProt Q99583),inactive: -0.061
8,MKRN3 (UniProt Q13064),inactive: 0.015
9,MRPL42 (UniProt Q9Y6G3),inactive: 0.151
10,MIER2 (UniProt Q8N344),inactive: 0.277
11,MRPL18 (UniProt Q9H0U6),inactive: 0.06
12,MID1IP1 (UniProt Q9NPA3),inactive: -0.254
13,MOB2 isoform 3 (UniProt Q70IA6),inactive: -0.15
14,MMAA (UniProt Q8IVH4),inactive: 0.035
15,MLLT11 (UniProt Q13015),inactive: -0.245
16,MORC2 (UniProt Q9Y6X9),inactive: -0.074
17,MON1A (UniProt Q86VX9),inactive: -0.012
18,MR1 (UniProt Q95460),inactive: 0.052
19,MLH1 (UniProt P40692),inactive: -0.347
20,MRNIP (UniProt Q6NTE8),inactive: -0.06
21,MLKL (UniProt Q8NB16),inactive: 0.039
22,MKKS (UniProt Q9HB66),inactive: -0.053
23,MICAL1 isoform 4 (UniProt Q8TDZ2),inactive: -0.291

# Compound: CC(C)C1=C2N=C(C=C(N2N=C1)NCC3=CC=CC=C3)NCCCCCCN
# Assay: as above
# Method in brief: as §1
row,Target,log2 fold change
1,MINDY2 (UniProt Q8NBR6),inactive: -0.033
2,MKRN1 (UniProt Q9UHC7),inactive: 0.049
3,MOB3A (UniProt Q96BX8),inactive: -0.018
4,MMADHC (UniProt Q9H3L0),inactive: 0.039
5,MICALL1 (UniProt Q8N3F8),inactive: 0.03
6,MKRN3 (UniProt Q13064),inactive: 0.25
7,MIER2 (UniProt Q8N344),inactive: 0.07
8,MRFAP1 (UniProt Q9Y605),inactive: -0.056
9,MPC1 (UniProt Q9Y5U8),inactive: 0.087
10,MRPL18 (UniProt Q9H0U6),inactive: -0.028
11,MOCS2 (UniProt O96033),inactive: -0.138
12,MID1IP1 (UniProt Q9NPA3),inactive: -0.039
13,MOB2 isoform 3 (UniProt Q70IA6),inactive: -0.01
14,MMAA (UniProt Q8IVH4),inactive: 0.041
15,MLLT11 (UniProt Q13015),inactive: -0.149
16,MRM2 (UniProt Q9UI43),inactive: -0.075
17,MOB3B (UniProt Q86TA1),inactive: -0.169
18,MRAS (UniProt O14807),inactive: -0.03
19,MORC2 (UniProt Q9Y6X9),inactive: -0.084
20,MON1A (UniProt Q86VX9),inactive: -0.151
21,MICA (UniProt Q29983),inactive: 0.029
22,MME (UniProt P08473),inactive: 0.055
23,MOSPD1 isoform 3 (UniProt Q9UJG1),inactive: 0.198
24,MR1 (UniProt Q95460),inactive: -0.099
25,MMTAG2 (UniProt Q9BU76),inactive: 0.097
26,MRNIP (UniProt Q6NTE8),inactive: 0.081
27,MLKL (UniProt Q8NB16),inactive: -0.239
28,MKKS (UniProt Q9HB66),inactive: 0.084
29,MITF (UniProt O75030),active: -0.581
30,MICAL1 isoform 4 (UniProt Q8TDZ2),inactive: -0.167

# Compound: CC(C)C[C@@H](C=O)NC(=O)[C@H](CC(C)C)NC(=O)[C@H](CC(C)C)NC(=O)OCc1ccccc1
# Assay: as above
# Method in brief: as §1
row,Target,log2 fold change
1,MKRN1 (UniProt Q9UHC7),inactive: 0.242
2,MPHOSPH8 isoform 2 (UniProt Q99549),inactive: 0.035
3,MLLT10 (UniProt P55197),inactive: 0.056
4,MMRN1 (UniProt Q13201),inactive: 0.087
5,MICAL2 (UniProt O94851),inactive: 0.136
6,MOB3A (UniProt Q96BX8),inactive: 0.122
7,MMADHC (UniProt Q9H3L0),inactive: 0.076
8,MICALL1 (UniProt Q8N3F8),inactive: 0.003
9,MNT (UniProt Q99583),inactive: -0.048
10,MKRN3 (UniProt Q13064),inactive: -0.175
11,MRPL42 (UniProt Q9Y6G3),inactive: 0.221
12,MRFAP1 (UniProt Q9Y605),inactive: 0.437
13,MPC1 (UniProt Q9Y5U8),inactive: -0.144
14,MRPL18 (UniProt Q9H0U6),inactive: 0.054
15,MID1IP1 (UniProt Q9NPA3),inactive: 0.17
16,MOB2 isoform 3 (UniProt Q70IA6),inactive: -0.021
17,MLLT11 (UniProt Q13015),inactive: -0.174
18,MON1A (UniProt Q86VX9),inactive: 0.032
19,MICA (UniProt Q29983),inactive: 0.189
20,MINDY4 (UniProt Q4G0A6),inactive: 0.145
21,MMTAG2 (UniProt Q9BU76),inactive: 0.089
22,MRNIP (UniProt Q6NTE8),inactive: 0.087
23,MICAL1 isoform 4 (UniProt Q8TDZ2),inactive: -0.004
